These are yes or no findings as the source states them, for the method shown. Some binding calls cover weakened binding; strength is not graded here.

Protein sequences, listed by entry. Tags and fused reporters are not part of them. Residues count along the entry.
UniProt P61224: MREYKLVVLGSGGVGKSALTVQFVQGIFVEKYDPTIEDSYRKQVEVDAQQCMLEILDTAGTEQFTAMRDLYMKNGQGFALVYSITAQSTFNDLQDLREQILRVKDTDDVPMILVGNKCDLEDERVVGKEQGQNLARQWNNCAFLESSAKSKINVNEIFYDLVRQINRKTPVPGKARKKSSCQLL
UniProt Q9BPZ7, residues 266-374: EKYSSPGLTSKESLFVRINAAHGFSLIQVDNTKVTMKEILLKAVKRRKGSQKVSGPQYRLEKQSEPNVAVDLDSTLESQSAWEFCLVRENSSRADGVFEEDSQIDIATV

We go through 1 substance from paper PMC4865869.

Test [1] has as its target His-tagged human Rap1b (human) (UniProt P61224). Put plainly: pull-down; His-Rap1b GppNHp-bound with GST-SIN1^RBD, 25 ug of each, 50 mM Tris-Cl, 150 mM NaCl, 5 mM MgCl2, 1 mM beta-mercaptoethanol, pH 7.5; Ni-NTA resin 2 hours at 4 C; washes with 500 mM NaCl; Coomassie Blue; both purified.
The target is the same in test [2]. Put plainly: pull-down; His-Rap1b nucleotide free (EDTA) with GST-SIN1^RBD, 25 ug of each, same buffer; Ni-NTA resin 2 hours at 4 C; washes with 500 mM NaCl; Coomassie Blue; both purified.

As to “GST-SIN1^RBD (aa 266-374) (from UniProt Q9BPZ7 266-374) (domain or fragment)”, the binding result in test [1] is given as “binds”; in test [2], “no binding (condition: nucleotide free Rap1b (EDTA))”.
